# From paper PMC10499821
# The chains behind the UniProt entries cited, without tags or fusion partners. Where a name states a change or a piece, a line headed by the entry shows the natural chain unless it says otherwise.
# UniProt Q99466: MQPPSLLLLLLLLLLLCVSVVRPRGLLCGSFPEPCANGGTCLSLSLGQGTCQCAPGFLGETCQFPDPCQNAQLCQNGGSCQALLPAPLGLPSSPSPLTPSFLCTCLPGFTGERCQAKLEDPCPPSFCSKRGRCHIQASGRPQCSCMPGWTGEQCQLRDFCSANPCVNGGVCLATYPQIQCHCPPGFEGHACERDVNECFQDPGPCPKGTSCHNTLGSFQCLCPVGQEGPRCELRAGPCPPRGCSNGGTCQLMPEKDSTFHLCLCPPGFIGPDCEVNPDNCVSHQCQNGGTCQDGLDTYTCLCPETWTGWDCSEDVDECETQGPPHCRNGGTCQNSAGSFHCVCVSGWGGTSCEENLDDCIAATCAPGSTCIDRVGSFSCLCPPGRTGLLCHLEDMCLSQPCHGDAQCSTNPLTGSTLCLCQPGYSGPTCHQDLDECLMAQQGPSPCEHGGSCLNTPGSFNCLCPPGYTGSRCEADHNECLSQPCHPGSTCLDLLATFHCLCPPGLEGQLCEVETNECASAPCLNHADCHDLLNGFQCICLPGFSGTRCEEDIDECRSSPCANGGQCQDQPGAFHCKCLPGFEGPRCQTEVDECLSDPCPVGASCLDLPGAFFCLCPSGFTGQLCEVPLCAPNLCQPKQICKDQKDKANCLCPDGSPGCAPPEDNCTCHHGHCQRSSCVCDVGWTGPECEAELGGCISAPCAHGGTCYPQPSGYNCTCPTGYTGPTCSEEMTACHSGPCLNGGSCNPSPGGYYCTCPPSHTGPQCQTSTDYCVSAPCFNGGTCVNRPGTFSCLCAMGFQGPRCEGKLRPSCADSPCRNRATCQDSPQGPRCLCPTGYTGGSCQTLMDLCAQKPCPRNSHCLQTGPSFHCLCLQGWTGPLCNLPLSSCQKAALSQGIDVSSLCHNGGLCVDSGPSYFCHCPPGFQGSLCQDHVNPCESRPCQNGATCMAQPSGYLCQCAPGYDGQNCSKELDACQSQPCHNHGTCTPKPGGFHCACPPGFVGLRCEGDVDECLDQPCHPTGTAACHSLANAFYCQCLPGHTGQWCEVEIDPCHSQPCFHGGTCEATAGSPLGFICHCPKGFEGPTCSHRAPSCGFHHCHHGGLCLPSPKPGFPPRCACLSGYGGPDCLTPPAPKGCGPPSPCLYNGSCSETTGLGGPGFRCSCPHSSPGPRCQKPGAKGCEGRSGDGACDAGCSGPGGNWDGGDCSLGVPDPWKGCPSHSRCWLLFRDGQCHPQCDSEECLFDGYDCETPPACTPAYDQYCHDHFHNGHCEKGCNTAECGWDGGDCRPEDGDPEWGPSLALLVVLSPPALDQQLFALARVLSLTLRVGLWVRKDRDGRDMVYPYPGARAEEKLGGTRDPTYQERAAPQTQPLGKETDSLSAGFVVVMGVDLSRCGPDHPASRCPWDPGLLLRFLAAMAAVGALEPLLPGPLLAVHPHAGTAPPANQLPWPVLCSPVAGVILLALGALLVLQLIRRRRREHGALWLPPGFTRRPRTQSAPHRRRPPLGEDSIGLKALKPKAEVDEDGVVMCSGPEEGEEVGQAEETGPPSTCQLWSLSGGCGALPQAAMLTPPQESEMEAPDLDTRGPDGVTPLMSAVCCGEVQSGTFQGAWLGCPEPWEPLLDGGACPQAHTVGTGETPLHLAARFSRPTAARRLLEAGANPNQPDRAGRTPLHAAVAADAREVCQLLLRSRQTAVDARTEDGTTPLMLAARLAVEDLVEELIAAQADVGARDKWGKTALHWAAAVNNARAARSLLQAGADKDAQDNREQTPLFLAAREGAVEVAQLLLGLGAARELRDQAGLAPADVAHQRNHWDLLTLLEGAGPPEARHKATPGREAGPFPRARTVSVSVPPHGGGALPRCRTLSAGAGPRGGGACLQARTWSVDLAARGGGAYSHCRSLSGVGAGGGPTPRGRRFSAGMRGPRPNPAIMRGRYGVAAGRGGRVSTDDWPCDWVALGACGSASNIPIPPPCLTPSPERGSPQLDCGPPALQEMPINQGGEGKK
# Results are given in words; binding and its absence hold for the method and conditions named. Some binding calls cover weakened binding; strength is not graded here.
# Biological target: Nsp9 (SARS-CoV-2) (UniProt P0DTD1)
# Experiment: NMR titration; both purified
substance,measurement,value
NOTCH4_(1605–1620) (from UniProt Q99466 1605-1620) (peptide),binding,binds
